Experimental data taken from paper PMC7817816.
Results are given in words; binding and its absence hold for the method and conditions named. Binding seen in cells or lysates may run through a third protein. Some entries that bind do so weakly or less than the wild type.

Protein sequences, listed by entry. Tags and fused reporters are not part of them.
UniProt Q13950: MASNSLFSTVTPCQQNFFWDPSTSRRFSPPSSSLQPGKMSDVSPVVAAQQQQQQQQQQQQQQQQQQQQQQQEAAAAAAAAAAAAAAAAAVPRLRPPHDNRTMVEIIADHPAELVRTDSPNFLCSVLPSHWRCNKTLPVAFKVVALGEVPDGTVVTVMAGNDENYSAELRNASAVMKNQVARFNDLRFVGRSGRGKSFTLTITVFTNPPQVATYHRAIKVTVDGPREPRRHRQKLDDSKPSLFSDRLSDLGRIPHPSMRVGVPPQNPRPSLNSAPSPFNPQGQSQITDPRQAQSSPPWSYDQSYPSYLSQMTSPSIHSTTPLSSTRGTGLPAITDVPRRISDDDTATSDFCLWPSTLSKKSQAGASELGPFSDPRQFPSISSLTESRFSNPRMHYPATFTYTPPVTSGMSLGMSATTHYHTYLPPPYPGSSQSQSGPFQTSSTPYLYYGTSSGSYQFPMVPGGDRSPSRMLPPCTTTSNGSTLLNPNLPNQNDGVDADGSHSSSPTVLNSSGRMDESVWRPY

Biological target: Myc-RUNX2 (Runt-related transcription factor 2) (UniProt Q13950)
Experiment: co-IP; CHIP and RUNX2 with or without overexpression of TRIM16; IP with anti-Myc, probed with anti-Flag

- binding: binds
Substance: Flag-CHIP (carboxy terminus of HSP70 interacting protein) (from UniProt Q9UNE7-1 1-303)
